Columns and labels:
Caco-2 cell permeability = settings: human
[1] = Water solubility of PBICs; type: physicochemical
Method: The water solubilties and partition coefficients of the PBICs were measured and compared to the values of the therapeutic agent by itself. To determine the partition coefficient Log D7.4 data provided in Table 2, a solution of the compound or conjugate was prepared in aqueous phosphate buffered saline (PBS) at a concentration of 100 micromolar (μM). The PBS solution was shaken with octanol. Thus, in Table 2, Log D7.4=Log (concentration in octanol/concentration in aqueous phosphate buffered saline (PBS))=Log[(initial concentration in PBS−final concentration in PBS)/final concentration in PBS], as the concentration in octanol is derived from the loss of compound from the aqueous PBS layer.

## NS(=O)(=O)c1cc(C(=O)O)c(NCc2ccco2)cc1Cl [Furosemide, reference compound]
Caco-2 cell permeability
  Papp A→B: 0.155 ×10⁻⁶ cm/s
  Papp B→A: 9.95 ×10⁻⁶ cm/s

## COC1=C(OC)C(=O)C(CCCCCCCCCC[P+](c2ccccc2)(c2ccccc2)c2ccccc2)=C(C)C1=O.NS(=O)(=O)c1cc(C(=O)[O-])c(NCc2ccco2)cc1Cl [Furosemide-MitoQ, Furosemide-MitoQ conjugate]
[1]
  Water solubility, MitoQ Conjugate: Insoluble

Source: patent publication US11541120B2, “Phosphonium-based ionic drug conjugates” (Anthos Partners, LP, priority 2017, dated 2023)
